Data taken from article PMC5996148.
Values joined by “and” are separate entries in the source; they are usually repeats but may differ in a detail not shown here. Equal entries are not always repeated. The list shows a part of the results. For some assays here: Construct or isoform of the protein are uncertain.

Key:
Assay in all cases: protein microarray (ProtoArray v5.0), streptavidin-Alexa Fluor 647
Conditions in all cases: 3'-biotin; 20 mM Tris (pH 7.5), 5 mM MgCl2, 100 mM KCl, 0.1% Tween-20, A/T-rich and random oligonucleotide blockers; temperature not stated; high values mean tight binding
[1] = system: FGF1 (human)
[2] = system: FGF19 (human)
[3] = system: FGF21 (human)
[4] = system: FGL1 (human)
[5] = system: FHL3 (human)
[6] = system: FKBP11 (human)
[7] = system: FKBP2 (human)
[8] = target: T1, FKBPL (UniProt Q9UIM3)
T1 sequence: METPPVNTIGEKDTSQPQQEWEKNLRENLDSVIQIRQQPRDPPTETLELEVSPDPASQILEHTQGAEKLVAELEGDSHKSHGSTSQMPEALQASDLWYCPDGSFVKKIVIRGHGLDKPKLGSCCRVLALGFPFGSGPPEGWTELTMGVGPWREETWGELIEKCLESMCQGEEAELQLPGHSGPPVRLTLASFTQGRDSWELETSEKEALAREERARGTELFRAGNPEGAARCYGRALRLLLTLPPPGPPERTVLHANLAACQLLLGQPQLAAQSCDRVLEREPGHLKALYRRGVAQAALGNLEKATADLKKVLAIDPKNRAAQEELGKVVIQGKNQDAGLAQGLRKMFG

[9] = system: FLJ11171 (human)
[10] = system: FLJ11506 (human)
[11] = system: FLJ12684 (human)
[12] = system: FLJ14107 (human)
[13] = system: FLJ20160 (human)
[14] = system: FLJ20489 (human)
[15] = system: FLJ22222 (human)
[16] = system: FLJ22447 (human)
[17] = system: FLJ23356 (human)
[18] = system: FLJ25758 (human)
[19] = system: FLJ30934 (human)
[20] = system: FLJ31438 (human)

“GGGAGGCTGAGGCAGG [G4-1 biotinylated (PQS2)]” gave a binding signal [1] of -0.279 z-score, a binding signal [2] of -0.305 z-score and a binding signal [3] of -0.284 z-score. It also gave a binding signal [4] of -0.327 z-score, a binding signal [5] of -0.297 z-score and a binding signal [6] of -0.31 z-score. For the same sequence, the binding signal [7] was -0.32 z-score, the binding signal [8] was -0.346 z-score and the binding signal [9] was -0.256 z-score and -0.291 z-score. The binding signal [10] was -0.308 z-score, the binding signal [11] was -0.253 z-score and the binding signal [12] was -0.293 z-score. The binding signal [13] was -0.254 z-score, the binding signal [14] was -0.309 z-score and the binding signal [15] was -0.311 z-score. For the same sequence, the binding signal [16] was -0.307 z-score, the binding signal [17] was -0.286 z-score and the binding signal [18] was -0.346 z-score. For the same sequence, the binding signal [19] was -0.28 z-score and -0.296 z-score and the binding signal [20] was -0.294 z-score.
